Test results published in US10280442B2, “Mutant sucrose phosphorylases with improved glycosylation activity towards polyphenols” (Universiteit Gent, priority 2015, dated 2019).
Changes are numbered by the printed parent chain. Names and notes keep the numbering of the source. Values joined by “and” are separate entries in the source; they are usually repeats but may differ in a detail not shown here. Identical values can stand only once. At least one read-out could not be matched to a standard name with certainty.

Assay: Enzyme kinetics of TtSPP variants for resveratrol glycosylation
Format: biochemical
Conditions: co-substrate 1M sucrose, pH 6.5, 55° C., 20% ionic liquid AMMOENG 101

B1: R134A: variant R134A of TtSPP sucrose phosphorylase from Thermoanaerobacterium thermosaccharolyticum (protein)
chain: MALKNKVQLITYPDSLGGNLKTLNDVLEKYFSDVFGGVHILPPFPSSGDRGFAPITYSEIEPKFGTWYDIKKMAENFDILLDLMVNHVSRRSIYFQDFLKKGRKSEYADMFITLDKLWKDGKPVKGDIEKMFLARTLPYSTFKIEETGEEEKVWTTFGKTDPSEQIDLDVNSHLVREFLLEVFKTFSNFGVKIVRLDAVGYVIKKIGTSCFFVEPEIYEFLDWAKGQAASYGIELLLEVHSQFEVQYKLAERGFLIYDFILPFTVLYTLINKSNEMLYHYLKNRPINQFTMLDCHDGIPVKPDLDGLIDTKKAKEVVDICVQRGANLSLIYGDKYKSEDGFDVHQINCTYYSALNCDDDAYLAARAIQFFTPGIPQVYYVGLLAGVNDFEAVKKTKEGREINRHNYGLKEIEESVQKNVVQRLLKLIRFRNEYEAFNGEFFIEDCRKDEIRLTWKKDDKRCSLFIDLKTYKTTIDYINENGEEVKYLV
modifications: mutant of sucrose phosphorylase of bacterium Thermoanaerobacterium thermosaccharolyticum
For B1, the “kcat/Km (catalytic efficiency)” value was 12.8 M⁻¹ s⁻¹ and 12.8 ± 2.6 M⁻¹ s⁻¹.

B2: R134V: variant R134V of TtSPP sucrose phosphorylase (protein)
chain: B1 chain with A134V
modifications: mutant of sucrose phosphorylase of bacterium Thermoanaerobacterium thermosaccharolyticum
For B2, the “kcat/Km (catalytic efficiency)” value was 4.1 ± 0.4 M⁻¹ s⁻¹.

B3: R134T: variant R134T of TtSPP sucrose phosphorylase (protein)
chain: B1 chain with A134T
modifications: mutant of sucrose phosphorylase of bacterium Thermoanaerobacterium thermosaccharolyticum
For B3, the “kcat/Km (catalytic efficiency)” value was 1.4 ± 0.2 M⁻¹ s⁻¹.
